PubChem BioAssay AID977622 (Broad Institute, 2014)
The other results are listed elsewhere or left out. These are further read-outs of the screen, such as a control signal, another cell line or another target. No call is given for them.

Experiments:
[1] = wild-type E. coli growth inhibition versus h38 humanized strain – h38 mutant RFP, wild-type GFP, cherry-pick, dose response (AID 977622); details: E. coli mixed culture, 24 h, total growth OD600 at 50 uM
[2] = tested on: E. coli h38 humanized mutant ribosome RFP fluorescence, mixed culture, 24 h; assay: as above; details: h38 mutant RFP at 50 uM

CCCCn1c(NS(=O)(=O)c2ccc(C)cc2)c(C(=O)OCC)c2nc3ccccc3nc21
activity change [1]: -21.7%
activity change [2]: -0.659%

CC(C)Cc1nc(N2CCNCC2)c(C#N)c2c1CCC2
activity change [1]: -29.9%
activity change [2]: -9.06%

O=C(c1ccc(Cl)cc1)C1CCCN(Cc2cccc3cnccc23)C1 (configuration not stated)
activity change [1]: -36.6%
activity change [2]: 0.893%

Nc1c(C(=O)NCCN2CCOCC2)c2nc3ccccc3nc2n1Cc1ccccc1
activity change [1]: -4.54%

CC(=O)OC1N=C(c2ccccc2Cl)c2cc(Br)ccc2NC1=O (configuration not stated)
activity change [1]: -25.7%
activity change [2]: -59.6%

Cc1c(C(=O)Nc2ccccc2)c2cc(O)ccc2n1Cc1ccccc1
activity change [1]: 2.52%
activity change [2]: 10.2%

CN1CCC(c2c[nH]c3ccccc23)C1 (configuration not stated)
activity change [1]: -6.23%

O=[N+]([O-])c1ccc(N2CCOCC2)c2c1no[n+]2[O-]
activity change [1]: -10.2%
activity change [2]: -13.5%

CN(c1ccccc1)c1ccc([N+](=O)[O-])c2nonc12
activity change [1]: -27.2%
activity change [2]: -2.96%

CCOC(=O)[C@]12Cc3ccccc3[C@H]1N(C)C(=O)c1cc(OC)ccc12
activity change [1]: -45.4%
activity change [2]: -29.1%

CCOC(=O)c1c(C)n(Cc2ccccc2)c2ccc(O)cc12
activity change [1]: -33.8%
activity change [2]: -28.1%

CCOC(=O)C12C(=O)OCC1C2c1ccccc1 (configuration not stated)
activity change [1]: 7.21%
activity change [2]: 13.9%

CSc1ccc(CN2CCN(Cc3ccccc3Cl)CC2)cc1
activity change [1]: -35.5%
activity change [2]: 43.6%

Cc1c(-c2cccc(Cl)c2)nc2ccccc2c1C(=O)N1CCC2(CC1)OCCO2
activity change [1]: -19.6%

COc1cc(O)c2c(c1)/C=C/C[C@H](O)[C@H](O)C(=O)CCC[C@H](C)OC2=O
activity change [1]: -25.3%
activity change [2]: -14.5%
